Measurements as given in PubChem BioAssay AID493014 (National Center for Advancing Translational Sciences (NCATS), 2011).
The list shows a part of the results. Shown are side measurements of this screen, not its main read-out; they come without a call. The list favours compounds with an active or inconclusive main result. Words in brackets tell the shape of the fitted curve; partial curves, single points and poor fits give uncertain potencies.

Assay: qHTS Assay to Find Inhibitors of Chronic Active B-Cell Receptor Signaling
Conditions: ABC-DLBCL IkBa-CBG/CBR reporter, luminescence ratio (green luciferase fused to IkBa over red control in TMD8 lymphoma cells), 4 h
In short: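 TMD8 human ABC-DLBCL cells with doxycycline-inducible IκBα–green luciferase fusion and unfused red luciferase, in 0.5% FBS medium; compounds up to 46 uM, 4 h at 37C. Green/red luminescence ratio, filter-overlap corrected, fitted to concentration-response curves.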

[1] = measured here: CBR red luminescence, cell number
[2] = measured here: IkBa-CBG green luminescence

SMILES	AC50 [1]	AC50 [2]
O=C(c1[nH]ncc1-c1ccccc1)C1CO1 (centres undefined)	35.5 µM [falling, single point]	–
Cc1ccc(NC(=O)COc2ncnc3ccccc23)cc1S(=O)(=O)N1CCOCC1	0.82 µM [rising, full curve]	–
O=C(OCc1nnc(-c2ccccc2)o1)c1ccccc1	12.6 µM [falling, single point]	–
Nc1cccnc1Sc1cc(Cl)cc(Cl)c1	20.6 µM [rising, partial curve]	–
O=C(COC(=O)Cn1cc(C(F)(F)F)ccc1=O)Nc1ccccc1	16.4 µM [rising, partial curve]	–
Cc1cccc(N/N=C/c2ccc(C)s2)c1	3.98 µM [rising, partial curve]	–
O=C(COc1ccc2c(c1)OCO2)NC12CC3CC(CC(C3)C1)C2	23.1 µM [falling, single point]	–
Cc1cc(C(=O)NCc2cccs2)c(C)o1	10.3 µM [falling, partial curve, poor fit]	–
C/C(=N\Nc1nccnc1Cl)c1ccc(Cl)c(Cl)c1	6.31 µM [rising, partial curve, poor fit]	–
COc1ccc2[nH]c3c(C)c4ccncc4c(C)c3c2c1	35.5 µM [falling, single point]	–
O=[N+]([O-])c1cccnc1N1CCC(c2cc(-c3ccc(Cl)cc3)n[nH]2)CC1	29.1 µM [falling, single point]	20.6 µM [rising, partial curve, poor fit]
c1ccc(C2=NNC(=NC3CC3)SC2)cc1	20 µM [falling, single point]	–
COC(=O)C1=C(C)N(c2ccc(Cl)c(Cl)c2)C(=O)C1	1.46 µM [falling, full curve]	20.6 µM [rising, partial curve, poor fit]
O=C1C=C(Nc2ccc(Cl)cc2)CC(c2ccco2)C1 (centres undefined)	18.4 µM [falling, single point]	–
CS(=O)(=O)c1ccc2nc(NC(=O)c3ccc(Cl)cc3)sc2c1	2.82 µM [rising, partial curve]	–
Cc1cccc(NC(=O)c2ccccc2NC(=O)CCC(=O)O)c1	29.1 µM [rising, single point]	–
CSc1cccc(NC(=O)CCCNC(=O)c2ccc(Cl)cc2)c1	35.5 µM [falling, single point]	–
Clc1ccc2nc(N3CCCCC3)sc2c1	6.51 µM [rising, single point]	–
N/C(=N\OC(=O)Cc1ccc([N+](=O)[O-])cc1)c1cccc(Br)c1	6.31 µM [falling, partial curve]	–
C/C(Cn1cnc([N+](=O)[O-])n1)=N/NC(=O)COc1ccccc1Cl	2.31 µM [rising, full curve]	–
CN1C2CCC1CC(N(CCc1ccccc1)C(=O)c1ccc(Cl)cc1)C2 (centres undefined)	14.1 µM [falling, partial curve, poor fit]	–
CC(=O)n1nc(-c2ccc(Cl)cc2)nc1NCc1ccco1	0.259 µM [rising, full curve, poor fit]	–

SMILES	AC50 [1]	AC50 [2]
COC(=O)c1sc2nc3c(cc2c1N)COC(C)(C)C3	6.51 µM [falling, single point]	–
CCC(=O)Nc1ccc(NC(=O)c2ccccc2)nc1	2.24 µM [falling, full curve]	–
CN(C)S(=O)(=O)c1ccc(Cl)c(NC(=O)COC(=O)CNC(=O)c2ccco2)c1	5.01 µM [rising, full curve, poor fit]	–
O=C(Nc1ccc([N+](=O)[O-])cc1)Nc1ccc2c(c1)OCCO2	0.794 µM [rising, full curve, poor fit]	–
COc1ccc(NC(=O)c2ccc(C)cc2Cl)c([N+](=O)[O-])c1	5.62 µM [rising, partial curve]	–
C/C(=N\OC(=O)c1ccc(F)cc1)c1sc(-c2ccccc2)nc1C	0.501 µM [rising, full curve, poor fit]	–
O=C(Nc1ccncc1)c1ccc(NS(=O)(=O)c2ccc3[nH]c(=O)[nH]c3c2)cc1	20 µM [rising, partial curve, poor fit]	–
O=C(Sc1ccccc1)c1cccc(Cn2cc(C(F)(F)F)ccc2=O)c1	11.2 µM [falling, partial curve]	–
Cc1cc(=O)n2nc(N3CCC(C(=O)NCC(C)c4ccccc4)CC3)sc2n1 (centres undefined)	12.6 µM [falling, partial curve, poor fit]	–
Cc1ccc(NC(=O)C(=O)NCCN2CCN(S(C)(=O)=O)CC2)cc1	20 µM [rising, single point]	–
O=c1cc(CN2CCN(c3ccc(F)cc3)CC2)nc2sccn12	4.61 µM [falling, single point]	–
CCc1c(O)nc(SCc2ccccc2)n(C(C)CC)c1=O (centres undefined)	5.17 µM [falling, partial curve, poor fit]	–
COc1ccccc1NC(=O)COC(=O)CN1C(=O)C(=O)c2ccccc21	11.2 µM [falling, single point]	–
O=C(c1ccc(-c2cccc(Cl)c2Cl)o1)N1CCOCC1	0.631 µM [rising, full curve, poor fit]	–
O=C1NC(=O)/C(=C/c2ccccc2OCc2ccccc2)S1	35.5 µM [falling, single point]	–
CCOC(=O)c1c(N)sc2c1CCC1C(=O)N(C3CCCCC3)C(=O)C21 (centres undefined)	2.91 µM [falling, full curve]	–
CCCn1nnnc1SCC(=O)NCc1ccc(OC)cc1	1.64 µM [rising, single point]	–
O=C1/C(=C/C=C/c2ccccc2)Oc2c1ccc(O)c2CN1CCN(CCO)CC1	10 µM [falling, partial curve]	–
Cc1ccccc1N1C(=O)c2ccccc2C1Nc1cccnc1 (centres undefined)	18.4 µM [rising, single point]	–
O=C(CCCl)Nc1nnc(SCC(=O)NC2CCCC2)s1	14.1 µM [falling, partial curve, poor fit]	–
O=C(CCN1C(=O)/C(=C/c2ccccc2)SC1=S)NC1CCS(=O)(=O)C1 (centres undefined)	14.1 µM [falling, partial curve]	–
CCOC(=O)c1sc(NC(=O)CSc2nc(C)cc(C(F)(F)F)n2)c(C#N)c1C	6.51 µM [rising, single point]	–

SMILES	AC50 [1]	AC50 [2]
Cc1cc(-c2ccc(C)c(S(=O)(=O)NCc3cccc(Br)c3)c2)on1	20 µM [falling, partial curve, poor fit]	–
COc1ccc(N(C)S(=O)(=O)c2cccc(C(=O)Nc3nc4ccccc4[nH]3)c2)cc1	35.5 µM [falling, single point]	–
N#Cc1cn(CC(=O)N2CCCC2)c2ccccc12	29.1 µM [falling, single point]	–
CC(C)CCNc1nc2c(c(=O)n(Cc3cccc(F)c3)c(=O)n2C)n1C	25.1 µM [falling, single point]	–
O=C(/C=C/c1ccccc1)c1ccccc1	1.26 µM [falling, full curve, poor fit]	–
O=C(O)c1c(C(=O)O)c(-c2ccc(Cl)c(Cl)c2)n2c1CSC2	22.4 µM [falling, single point]	–
O=C(O)c1cc(NN=C2CCN(Cc3ccccc3)CC2)ccc1Cl	11.2 µM [falling, partial curve]	–
O=C(CCl)Nc1ccc(S(=O)(=O)NC2=NCCCCC2)cc1	5.8 µM [falling, partial curve, poor fit]	–
O=C(Nc1nc2ccccc2[nH]1)Nc1ccccc1F	10 µM [falling, partial curve]	–
CC(C)Nc1nc(Cl)nc(NNC(=O)C(C)Oc2ccccc2)n1 (centres undefined)	15.8 µM [falling, single point]	–
Cc1ccc(NC(=O)Cc2cccs2)cc1Cl	0.501 µM [rising, full curve, poor fit]	–
Cc1c(C#N)c2ccccc2n1CC(=O)N1CCCc2ccccc21	0.731 µM [falling, full curve, poor fit]	–
Cc1cccc(-n2nc(C(=O)c3ccco3)cc(-c3nc4ccccc4[nH]3)c2=N)c1	0.731 µM [rising, full curve, poor fit]	2.91 µM [falling, partial curve, poor fit]
Cc1ccc(Cl)cc1NC(=O)COC(=O)CN1C(=O)C2CCCCC2C1=O (centres undefined)	8.2 µM [rising, partial curve, poor fit]	–
CCOC(=O)/C=C/c1cnn(-c2ccccc2)c1	0.146 µM [rising, full curve, poor fit]	–
CCOc1nnc(C)c2c(C)n(-c3ccc(Cl)cc3)nc12	28.2 µM [rising, single point]	–
CCn1cc(C(=O)NCCC(=O)NCCO)c(=O)c2cc3c(cc21)OCO3	6.31 µM [falling, single point]	–
CC(C)(C)c1nnc(NC(=O)C2CCN(c3ncccn3)CC2)s1	6.51 µM [falling, single point]	–
CC1CCN(C(=O)c2ccc([N+](=O)[O-])o2)CC1	10 µM [rising, partial curve, poor fit]	–
CC1(C)Cc2c(sc(NC(=O)COc3ccc(Cl)cc3)c2C#N)C(C)(C)N1	31.6 µM [falling, single point]	–
Cn1cccc1C(NC(=O)c1ccccc1)C(Cl)(Cl)Cl (centres undefined)	7.94 µM [rising, partial curve, poor fit]	–
CCN(Cc1ccccc1)Cc1ccc(OCc2ccccc2)c(OC)c1	7.08 µM [rising, full curve, poor fit]	–

14 structures from above, ordered by molecular weight, low to high.
SMILES	AC50 [1]	AC50 [2]
O=C(/C=C/c1ccccc1)c1ccccc1	1.26 µM [falling, full curve, poor fit]	–
O=C(c1[nH]ncc1-c1ccccc1)C1CO1 (centres undefined)	35.5 µM [falling, single point]	–
CC1CCN(C(=O)c2ccc([N+](=O)[O-])o2)CC1	10 µM [rising, partial curve, poor fit]	–
O=C(Nc1nc2ccccc2[nH]1)Nc1ccccc1F	10 µM [falling, partial curve]	–
O=C1C=C(Nc2ccc(Cl)cc2)CC(c2ccco2)C1 (centres undefined)	18.4 µM [falling, single point]	–
CCc1c(O)nc(SCc2ccccc2)n(C(C)CC)c1=O (centres undefined)	5.17 µM [falling, partial curve, poor fit]	–
CCCn1nnnc1SCC(=O)NCc1ccc(OC)cc1	1.64 µM [rising, single point]	–
CC(C)(C)c1nnc(NC(=O)C2CCN(c3ncccn3)CC2)s1	6.51 µM [falling, single point]	–
Cc1ccc(NC(=O)C(=O)NCCN2CCN(S(C)(=O)=O)CC2)cc1	20 µM [rising, single point]	–
CCn1cc(C(=O)NCCC(=O)NCCO)c(=O)c2cc3c(cc21)OCO3	6.31 µM [falling, single point]	–
CCOC(=O)c1c(N)sc2c1CCC1C(=O)N(C3CCCCC3)C(=O)C21 (centres undefined)	2.91 µM [falling, full curve]	–
O=[N+]([O-])c1cccnc1N1CCC(c2cc(-c3ccc(Cl)cc3)n[nH]2)CC1	29.1 µM [falling, single point]	20.6 µM [rising, partial curve, poor fit]
O=C(Sc1ccccc1)c1cccc(Cn2cc(C(F)(F)F)ccc2=O)c1	11.2 µM [falling, partial curve]	–
CC1(C)Cc2c(sc(NC(=O)COc3ccc(Cl)cc3)c2C#N)C(C)(C)N1	31.6 µM [falling, single point]	–
